Assay results as given in US8969549B2, “Antioxidant small molecules aimed at targeting metal-based oxidative stress in neurogenerative disorders” (Texas Christian University, priority 2013, dated 2015).
For at least one compound, name, drawing or mass did not settle the structure.

Assay: DPPH radical quenching assay
Assay type: biochemical
Details: 1250 μM
Source text: Compound 2 (Chart 2) exists largely as the pyridol tautomer as confirmed by NMR. The reactivity of pyridol/pyridone based compounds such as chelidamic acid have shown reactivity with OH radicals in solution to form bis-pyridones and is a different mechanism than pyridine based compounds such as 1 (Chart 2). This reactivity is attributed to the enhanced antioxidant capacity observed. Chelidamic acid is the pyridone congener to the starting material used to produce 1. Therefore similar methodologies to produce 2 in gram scale quantities were employed.
As radicals are one product of miscompartmentalized metal ions, radical scavenging capability of compounds 1-3 (Chart 4) was tested using the DPPH assay. DPPH (2,2-diphenyl-1-picrylhydrazyl), is a dark purple (λmax=540 nm), stable free radical in solution that can be reduced to DPPHH in the presence of molecules with radical scavenging activity. This process results in a color change from dark purple to light yellow and can be followed spectroscopically by the decrease of the band at 540 nm. […]
DPPH stock solution was prepared by dissolving 25 mg in 100 mL of absolute EtOH. The working radical solution was prepared by dilution with absolute EtOH to an absorbance of 1.3 at 512 nm. […] Analysis of the solutions was performed as follows: 1 mL of the sample solution was diluted with 1 mL of H2O shaken and the absorbance was measured at 515 nm.

## Cc1cc(C(C)(C)C)c(O)c(C(C)(C)C)c1 [BHT, butylhydroxytoluene, reference compound]
  quenching of the DPPH radical: 80%
